Measured values taken from patent US5023269A, “3-aryloxy-3-substituted propanamines” (Eli Lilly and Company, priority 1990, dated 1991).
Structures can show the parent of a compound that is named as a salt. For at least one compound, name, drawing or mass did not settle the structure.

What was measured:
serotonin (5HT) uptake = assay: Inhibition of 5HT uptake in vitro: synaptosomal uptake of 3H-serotonin in rat cortical synaptosomes; assay type: biochemical, rat (male Sprague-Dawley); details: 50 nM 3H-5HT, 37° C., 5 min
Method: (§1) This general procedure is set forth by Wong et al., in Drug Development Research 6:397-403 (1985).
(§2) Male Sprague-Dawley rats (110-150 g) from Harlan Industries (Cumberland, IN) were fed a Purina Chow ad libitum for at least 3 days before being used in the studies. Rats were killed by decapitation. Whole brains were removed and dissected. Cerebral cortex was homogenized in 9 volumes of a medium containing 0.32 M sucrose and 10 mM glucose. Crude synaptosomal preparations were isolated after differential centrifugation at 1,000 g for 10 min. and 17,000 g for 28 min. The final pellets were suspended in the same medium and kept in ice until use within the same day.
(§3) Synaptosomal uptake of ^3 H-serotonin(^3 H-5hydroxytryptamine, ^3 H-5HT) and ^14 C-l-norepinephrine (^14 C-NE) was determined as follows. Cortical synaptosomes (equivalent to 1 mg of protein) were incubated at 37° C. for 5 min in 1 ml of Krebs-bicarbonate medium containing also 10 mM glucose, 0.1 mM iproniazid, 1 mM ascorbic acid, 0.17 mM EDTA, 50 nM ^3 H-5HT and 100 nM ^14 C-NE The reaction mixture was immediately diluted with 2 ml of ice-chilled Krebs-bicarbonate buffer and filtered under vacuum with a cell harvester (Brandel, Gaithersburg, MD). […] Radioactivity was measured by a liquid scintillation spectrophotometer. […]

[1] = system: norepinephrine (NE) uptake; assay: Inhibition of norepinephrine uptake in vitro: synaptosomal uptake of 14C-l-norepinephrine in rat cortical synaptosomes; assay type: biochemical, rat (male Sprague-Dawley); details: 100 nM 14C-NE, 37° C., 5 min
Method: as §1, §2, §3

Question: `CNCCC(Oc1ccc(C)c2ccccc12)c1cccs1` (stereo not shown) [Example 13, N-Methyl-3-(4-methyl-1-naphthalenyloxy)-3-(2-thienyl)propanamine maleate] was tested. Which IC50 (serotonin (5HT) uptake) did it give?
Answer: Its IC50 is 33 nM.

Question: What about the IC50 [1] of the same compound?
Answer: The IC50 was 47 nM.

Question: Which results are given for `CNCCC(Oc1cccc2ccccc12)c1cccnc1` (stereo not shown) [Example 36, N-Methyl-3-(-naphthalenyloxy)-3-(3-pyridyl)propanamine oxalate]?
Answer: IC50 (serotonin (5HT) uptake): 30 nM; IC50 [1]: 30 nM
